In PubChem BioAssay AID248 (DTP/NCI, 2004) one finds survivor count and T/C data, which are given here for 14 molecules.

SMILES strings stand for the structures. The list shows only some results of the screen, not a fair sample: it is rich in T/C values a quarter to a half above the control, in often repeated tests (any T/C) and in doses without a T/C. Further doses and runs are listed elsewhere. T/C: endpoint of the treated group in % of that of the vehicle group. Some entries give survivors of the animals treated and no T/C: the source files T/C as zero there, which appears to mark a toxic dose or a test without result, not a measured value. Some survivor counts are full or nearly so, which does not show that the dose was tolerated: the source hardly ever lists a survival T/C far under the control, and the zero likely stands for such cases as well. Counts of survivors are from the toxicity check (mostly the fifth day) where no day follows; animals may have died later. Schedule codes are those of the source, taken here to give the interval after Q, in days (D) or hours (H), and the number of doses after X. Brackets with × say how often a value occurs here. Some entries hold several experiments; their values stand side by side, smallest first. Some schedules carry Z or #; the key to these is not given. For survival time, the PubChem record calls one and a half times the control and up active, and a quarter to a half above the control has no call in these data; cut-offs in other NCI protocols can differ.

The test system of the experiment is L1210 leukemia ip in BDF1 mice, survival T/C. As to the kind of experiment: NCI In Vivo Anticancer Drug Screen. Data for tumor model L1210 Leukemia (intraperitoneal) in B6D2F1 (BDF1) mice. The conditions noted are these: T/C endpoint: mean survival time, higher T/C = longer survival.
[1] abbreviates: dose: 150.0 mg/kg/injection, schedule: Q01DX001 (ip), vehicle: saline.
Setting [2] is: dose: 200.0 mg/kg/injection, schedule: Q01DX001 (ip), vehicle: other.
The mark [3] stands for this setting: dose: 300.0 mg/kg/injection, schedule: Q01DX001 (ip), vehicle: saline.
[4] abbreviates: dose: 400.0 mg/kg/injection, schedule: Q01DX001 (ip), vehicle: other.
Setting [5] is: dose: 200.0 mg/kg/injection, schedule: Q01DX009 (ip), vehicle: saline.
[6] abbreviates: dose: 100.0 mg/kg/injection, schedule: Q04DX003 (ip), vehicle: saline.
Where [7] appears, read: dose: 400.0 mg/kg/injection, schedule: Q01DX009 (ip), vehicle: saline with Tween-80.

Consider `C=COCC(C)C` (tested in a mixture with another compound), for which the survivor count is listed as 3 of 6 (dose: 4.67 mg/kg/injection, schedule: Q01DX009 (ip), vehicle: Klucel (hydroxypropylcellulose) (HPC)); 3 of 6 (dose: 12.5 mg/kg/injection, schedule: Q01DX001 (ip), vehicle: other); 1 of 6 (dose: 12.5 mg/kg/injection, schedule: Q01DX009 (ip), vehicle: other); 6 of 6 (dose: 12.5 mg/kg/injection, schedule: Q04DX003 (ip), vehicle: saline); 6 of 6 (dose: 18.8 mg/kg/injection, schedule: Q01DX009 (ip), vehicle: saline); 0 of 6 (dose: 25.0 mg/kg/injection, schedule: Q01DX001 (ip), vehicle: other). The survivor count is 0 of 6 (dose: 25.0 mg/kg/injection, schedule: Q01DX009 (ip), vehicle: Klucel (hydroxypropylcellulose) (HPC)); 4 of 6 (dose: 25.0 mg/kg/injection, schedule: Q04DX003 (ip), vehicle: other); 0 of 6 (dose: 50.0 mg/kg/injection, schedule: Q01DX001 (ip), vehicle: other); 1 of 6 (dose: 50.0 mg/kg/injection, schedule: Q01DX009 (ip), vehicle: alcohol); 2 of 6 (dose: 50.0 mg/kg/injection, schedule: Q04DX003 (ip), vehicle: Klucel (hydroxypropylcellulose) (HPC)); 2 of 6 (dose: 50.0 mg/kg/injection, schedule: Q04DX003 (ip), vehicle: other). Besides, the survivor count reads like this: (dose: 75.0 mg/kg/injection, schedule: Q01DX001 (ip), vehicle: saline) 4 of 6; (dose: 80.0 mg/kg/injection, schedule: Q01DX009 (ip), vehicle: alcohol) 0 of 6; (dose: 100.0 mg/kg/injection, schedule: Q01DX001 (ip), vehicle: Klucel (hydroxypropylcellulose) (HPC)) 0 of 6 and 2 of 6; (dose: 100.0 mg/kg/injection, schedule: Q04DX003 (ip), vehicle: Klucel (hydroxypropylcellulose) (HPC)) 0 of 6; (dose: 100.0 mg/kg/injection, schedule: Q04DX003 (ip), vehicle: other) 2 of 6; (dose: 100.0 mg/kg/injection, schedule: Q04DX003 (ip), vehicle: saline with Tween-80) 6 of 6. Moreover, the survivor count reads like this: (dose: 120.0 mg/kg/injection, schedule: Q01DX009 (ip), vehicle: alcohol) 0 of 6; under setting [1], 0 of 5; (dose: 150.0 mg/kg/injection, schedule: Q04DX003 (ip), vehicle: saline) 4 of 6; (dose: 200.0 mg/kg/injection, schedule: Q01DX001 (ip), vehicle: Klucel (hydroxypropylcellulose) (HPC)) 0 of 6 and 2 of 6; under setting [2], 0 of 6 (2×); (dose: 200.0 mg/kg/injection, schedule: Q04DX003 (ip), vehicle: saline with Tween-80) 5 of 6. In addition, the survivor count reads like this: under setting [3], 1 of 6; (dose: 300.0 mg/kg/injection, schedule: Q04DX003 (ip), vehicle: saline) 1 of 6 (2×); (dose: 400.0 mg/kg/injection, schedule: Q01DX001 (ip), vehicle: Klucel (hydroxypropylcellulose) (HPC)) 0 of 6; under setting [4], 0 of 6 and 1 of 6; (dose: 400.0 mg/kg/injection, schedule: Q04DX003 (ip), vehicle: saline with Tween-80) 0 of 6.

As for `CC(C)=CCC/C(C)=C/CN`, the survivor count is 0 of 6 under setting [5] and 0 of 6 (dose: 400.0 mg/kg/injection, schedule: Q01DX009 (ip), vehicle: saline).

As to `CC(=C/c1ccccc1)/C=N/N=C(N)N`, the survivor count by setting is: (dose: 30.0 mg/kg/injection, schedule: Q01DX Z (ip), vehicle: saline) 3 of 6; (dose: 62.5 mg/kg/injection, schedule: Q01DX Z (ip), vehicle: saline) 0 of 6; (dose: 125.0 mg/kg/injection, schedule: Q01DX Z (ip), vehicle: saline) 0 of 6; (dose: 250.0 mg/kg/injection, schedule: Q01DX Z (ip), vehicle: saline) 0 of 6; (dose: 500.0 mg/kg/injection, schedule: Q01DX Z (ip), vehicle: saline) 0 of 6.

As to `CC[N+](C)(CC)CCCOC(=O)C(c1ccccc1)c1ccccc1`, the survivor count is on record as 1 of 6 under setting [6]; 0 of 6 (dose: 200.0 mg/kg/injection, schedule: Q04DX003 (ip), vehicle: saline); 0 of 6 (dose: 400.0 mg/kg/injection, schedule: Q04DX003 (ip), vehicle: saline).

Take `O=C(CBr)Nc1ccc(Cl)cc1`: the survivor count (dose: 38.0 mg/kg/injection, schedule: Q04DX003 (ip), vehicle: Klucel (hydroxypropylcellulose) (HPC)) is on record as 2 of 6; the survivor count (dose: 75.0 mg/kg/injection, schedule: Q04DX003 (ip), vehicle: Klucel (hydroxypropylcellulose) (HPC)) is given as 0 of 6; the survivor count (dose: 150.0 mg/kg/injection, schedule: Q04DX003 (ip), vehicle: Klucel (hydroxypropylcellulose) (HPC)) is reported as 0 of 6; the survivor count under setting [2] was 1 of 4; the survivor count under setting [4] is given as 0 of 4.

Take `C/C=C/CC1(C(C)C)C(=O)NC(=S)NC1=O`: the survivor count runs as follows: under setting [1], 0 of 6; under setting [3], 0 of 6.

For the molecule `S=c1[nH]ncn1-c1ccccc1`, the survivor count (dose: 400.0 mg/kg/injection, schedule: Q01DX009 (ip), vehicle: Klucel (hydroxypropylcellulose) (HPC)) is recorded as 0 of 6.

With `CCOC(=O)CNc1ccc(Br)cc1`, the survivor count (dose: 400.0 mg/kg/injection, schedule: Q04DX002 (ip), vehicle: Klucel (hydroxypropylcellulose) (HPC)) is 0 of 3.

Consider `CC(C)c1ccc([N+](=O)[O-])cc1`, for which the survivor count under setting [7] is 3 of 6.

For `O=C(Nc1ccc(NC(=O)Nc2ccc(C3=NCCCN3)cc2)cc1)Nc1ccc(C2=NCCCN2)cc1`, the T/C reads like this: (dose: 19.0 mg/kg/injection, schedule: Q04DX003 (ip), vehicle: saline) 128 % of control; (dose: 29.0 mg/kg/injection, schedule: Q04DX003 (ip), vehicle: saline) 125 % of control; (dose: 45.0 mg/kg/injection, schedule: Q04DX003 (ip), vehicle: saline) 135 % of control; (dose: 65.0 mg/kg/injection, schedule: Q04DX003 (ip), vehicle: saline) 137 % of control; under setting [6], 133 % of control; (dose: 200.0 mg/kg/injection, schedule: Q01DX001 (ip), vehicle: saline) 134 and 135 % of control. Besides, the T/C is 146 % of control (dose: 264.0 mg/kg/injection, schedule: Q01DX001 (ip), vehicle: saline) and 145, 188, 198, 255 % of control (dose: 400.0 mg/kg/injection, schedule: Q01DX001 (ip), vehicle: saline).

As for `NC(CO)C(=O)O.[Cl-].[Cl-].[Cl-].[Cl-].[Pt+2]` (stereo not given), the T/C is 125 % of control (dose: 25.0 mg/kg/injection, schedule: Q01DX009 (ip), vehicle: saline); 133 and 138 % of control (dose: 50.0 mg/kg/injection, schedule: Q01DX009 (ip), vehicle: saline). The survivor count was 2 of 6, 2 of 3, 4 of 6 (dose: 100.0 mg/kg/injection, schedule: Q01DX009 (ip), vehicle: saline) and 0 of 3 under setting [5].

Take `CCCCCCCCC(C(=O)c1ccccc1)C(O)(C(F)(F)F)C(F)(F)F` (stereo not given): under setting [7], the survivor count is on record as 3 of 6.

In the case of `N#CCC(=O)NCc1ccco1`, the survivor count is 0 of 3 (dose: 200.0 mg/kg/injection, schedule: Q01DX009 (ip), vehicle: saline with Tween-80) and 0 of 3 (dose: 400.0 mg/kg/injection, schedule: Q04DX002 (ip), vehicle: saline with Tween-80).

For the molecule `CCCCOc1ccc(/C=N/NC(=O)Nc2ccccc2)cc1`, the survivor count (dose: 200.0 mg/kg/injection, schedule: Q01DX009 (ip), vehicle: Klucel (hydroxypropylcellulose) (HPC)) is 6 of 6.
